Laboratory results from PMC3988174.
No constants are given. Whether binding was seen depends on the method and setting. For part of these data: In cells and extracts the contact can be indirect. Some binding calls cover weakened binding; strength is not graded here.

Protein sequences, listed by entry. Tags and fused reporters are not part of them. Residues count along the entry.
UniProt Q9S7H1: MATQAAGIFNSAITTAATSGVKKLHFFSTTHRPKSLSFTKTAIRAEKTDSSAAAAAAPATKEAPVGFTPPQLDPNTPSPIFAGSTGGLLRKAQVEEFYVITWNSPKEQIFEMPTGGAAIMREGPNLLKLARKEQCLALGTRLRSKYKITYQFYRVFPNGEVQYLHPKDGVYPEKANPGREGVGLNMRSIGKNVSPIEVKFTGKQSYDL
UniProt Q9SUI4: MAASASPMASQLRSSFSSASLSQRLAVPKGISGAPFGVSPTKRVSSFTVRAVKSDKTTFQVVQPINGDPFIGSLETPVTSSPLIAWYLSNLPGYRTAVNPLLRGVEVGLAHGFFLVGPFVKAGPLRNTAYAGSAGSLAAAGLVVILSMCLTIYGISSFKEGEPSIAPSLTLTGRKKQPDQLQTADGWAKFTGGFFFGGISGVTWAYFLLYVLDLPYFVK
UniProt Q38814: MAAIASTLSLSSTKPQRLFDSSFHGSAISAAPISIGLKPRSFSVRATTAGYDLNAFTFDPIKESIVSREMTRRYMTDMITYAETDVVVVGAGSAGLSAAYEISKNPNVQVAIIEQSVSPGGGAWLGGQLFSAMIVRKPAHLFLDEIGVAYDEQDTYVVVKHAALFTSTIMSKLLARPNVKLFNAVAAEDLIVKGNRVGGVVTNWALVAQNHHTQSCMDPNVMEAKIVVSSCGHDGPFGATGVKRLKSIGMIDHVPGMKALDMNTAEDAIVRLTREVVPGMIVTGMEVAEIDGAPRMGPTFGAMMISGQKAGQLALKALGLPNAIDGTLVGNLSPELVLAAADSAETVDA
UniProt P31167: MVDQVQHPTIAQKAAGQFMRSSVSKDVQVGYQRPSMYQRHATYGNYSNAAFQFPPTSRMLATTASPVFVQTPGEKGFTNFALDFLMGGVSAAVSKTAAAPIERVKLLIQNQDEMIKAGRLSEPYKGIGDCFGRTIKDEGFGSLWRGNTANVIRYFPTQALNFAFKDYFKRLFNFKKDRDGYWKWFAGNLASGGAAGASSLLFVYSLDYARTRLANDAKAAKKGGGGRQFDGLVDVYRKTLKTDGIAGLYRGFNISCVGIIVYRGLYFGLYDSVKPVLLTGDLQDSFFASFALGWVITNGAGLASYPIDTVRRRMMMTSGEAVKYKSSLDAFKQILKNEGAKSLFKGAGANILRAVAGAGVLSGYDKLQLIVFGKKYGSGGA
UniProt Q8H0W0: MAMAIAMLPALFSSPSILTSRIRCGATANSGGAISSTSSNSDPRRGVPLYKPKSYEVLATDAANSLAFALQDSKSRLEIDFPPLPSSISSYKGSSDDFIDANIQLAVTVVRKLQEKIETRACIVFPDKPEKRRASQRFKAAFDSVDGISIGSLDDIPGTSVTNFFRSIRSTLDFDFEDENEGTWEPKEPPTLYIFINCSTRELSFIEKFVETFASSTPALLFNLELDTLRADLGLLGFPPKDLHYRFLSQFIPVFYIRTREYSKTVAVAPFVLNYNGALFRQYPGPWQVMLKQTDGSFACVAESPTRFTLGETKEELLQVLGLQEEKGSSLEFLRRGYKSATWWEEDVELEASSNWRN
UniProt Q9SY97: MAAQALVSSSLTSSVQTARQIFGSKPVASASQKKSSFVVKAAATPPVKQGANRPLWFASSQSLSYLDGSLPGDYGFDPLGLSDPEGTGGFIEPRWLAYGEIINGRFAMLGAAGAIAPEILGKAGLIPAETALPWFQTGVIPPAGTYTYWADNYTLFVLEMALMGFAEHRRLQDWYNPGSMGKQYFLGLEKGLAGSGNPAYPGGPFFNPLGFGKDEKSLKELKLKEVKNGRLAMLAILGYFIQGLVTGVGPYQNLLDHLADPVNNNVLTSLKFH
UniProt Q9S7N7: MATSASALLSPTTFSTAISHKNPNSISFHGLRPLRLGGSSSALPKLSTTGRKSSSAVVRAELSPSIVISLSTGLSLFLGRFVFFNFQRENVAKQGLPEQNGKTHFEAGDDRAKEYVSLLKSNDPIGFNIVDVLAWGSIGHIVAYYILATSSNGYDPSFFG
UniProt P47998: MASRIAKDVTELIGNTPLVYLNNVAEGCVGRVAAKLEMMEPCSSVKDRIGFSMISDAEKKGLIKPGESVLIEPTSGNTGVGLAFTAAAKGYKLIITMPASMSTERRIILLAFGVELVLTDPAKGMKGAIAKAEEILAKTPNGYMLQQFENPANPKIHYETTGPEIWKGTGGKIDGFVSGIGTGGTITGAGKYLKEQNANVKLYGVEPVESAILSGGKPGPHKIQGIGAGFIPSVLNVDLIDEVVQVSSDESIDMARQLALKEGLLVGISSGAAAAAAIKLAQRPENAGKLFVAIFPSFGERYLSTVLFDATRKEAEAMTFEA
UniProt Q01667: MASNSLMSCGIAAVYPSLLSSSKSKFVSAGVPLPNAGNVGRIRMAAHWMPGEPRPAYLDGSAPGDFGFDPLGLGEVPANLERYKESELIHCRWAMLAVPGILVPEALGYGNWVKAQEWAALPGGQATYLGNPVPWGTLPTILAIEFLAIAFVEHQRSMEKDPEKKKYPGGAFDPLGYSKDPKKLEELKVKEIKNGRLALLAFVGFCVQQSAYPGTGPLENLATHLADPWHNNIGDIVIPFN
UniProt Q9SYW8: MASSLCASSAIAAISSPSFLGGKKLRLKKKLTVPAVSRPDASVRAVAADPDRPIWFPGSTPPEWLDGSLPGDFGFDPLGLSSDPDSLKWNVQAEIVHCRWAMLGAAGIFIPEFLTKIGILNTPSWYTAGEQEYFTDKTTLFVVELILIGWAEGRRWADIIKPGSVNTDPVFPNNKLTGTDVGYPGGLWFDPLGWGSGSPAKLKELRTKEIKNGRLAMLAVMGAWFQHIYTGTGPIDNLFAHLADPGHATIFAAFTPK
UniProt Q42029: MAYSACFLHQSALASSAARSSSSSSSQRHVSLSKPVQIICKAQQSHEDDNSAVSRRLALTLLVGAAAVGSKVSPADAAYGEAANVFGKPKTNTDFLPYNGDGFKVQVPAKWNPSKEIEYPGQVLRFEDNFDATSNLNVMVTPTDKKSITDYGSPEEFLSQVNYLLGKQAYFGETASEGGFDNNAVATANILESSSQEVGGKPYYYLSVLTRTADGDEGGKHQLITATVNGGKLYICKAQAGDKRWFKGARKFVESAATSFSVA
UniProt P00375: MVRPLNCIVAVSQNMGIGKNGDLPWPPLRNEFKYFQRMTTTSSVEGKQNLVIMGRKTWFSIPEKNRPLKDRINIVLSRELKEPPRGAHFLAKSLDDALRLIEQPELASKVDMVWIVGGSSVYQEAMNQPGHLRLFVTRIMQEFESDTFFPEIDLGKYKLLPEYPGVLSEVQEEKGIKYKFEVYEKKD
UniProt O81283, residues 1-1092: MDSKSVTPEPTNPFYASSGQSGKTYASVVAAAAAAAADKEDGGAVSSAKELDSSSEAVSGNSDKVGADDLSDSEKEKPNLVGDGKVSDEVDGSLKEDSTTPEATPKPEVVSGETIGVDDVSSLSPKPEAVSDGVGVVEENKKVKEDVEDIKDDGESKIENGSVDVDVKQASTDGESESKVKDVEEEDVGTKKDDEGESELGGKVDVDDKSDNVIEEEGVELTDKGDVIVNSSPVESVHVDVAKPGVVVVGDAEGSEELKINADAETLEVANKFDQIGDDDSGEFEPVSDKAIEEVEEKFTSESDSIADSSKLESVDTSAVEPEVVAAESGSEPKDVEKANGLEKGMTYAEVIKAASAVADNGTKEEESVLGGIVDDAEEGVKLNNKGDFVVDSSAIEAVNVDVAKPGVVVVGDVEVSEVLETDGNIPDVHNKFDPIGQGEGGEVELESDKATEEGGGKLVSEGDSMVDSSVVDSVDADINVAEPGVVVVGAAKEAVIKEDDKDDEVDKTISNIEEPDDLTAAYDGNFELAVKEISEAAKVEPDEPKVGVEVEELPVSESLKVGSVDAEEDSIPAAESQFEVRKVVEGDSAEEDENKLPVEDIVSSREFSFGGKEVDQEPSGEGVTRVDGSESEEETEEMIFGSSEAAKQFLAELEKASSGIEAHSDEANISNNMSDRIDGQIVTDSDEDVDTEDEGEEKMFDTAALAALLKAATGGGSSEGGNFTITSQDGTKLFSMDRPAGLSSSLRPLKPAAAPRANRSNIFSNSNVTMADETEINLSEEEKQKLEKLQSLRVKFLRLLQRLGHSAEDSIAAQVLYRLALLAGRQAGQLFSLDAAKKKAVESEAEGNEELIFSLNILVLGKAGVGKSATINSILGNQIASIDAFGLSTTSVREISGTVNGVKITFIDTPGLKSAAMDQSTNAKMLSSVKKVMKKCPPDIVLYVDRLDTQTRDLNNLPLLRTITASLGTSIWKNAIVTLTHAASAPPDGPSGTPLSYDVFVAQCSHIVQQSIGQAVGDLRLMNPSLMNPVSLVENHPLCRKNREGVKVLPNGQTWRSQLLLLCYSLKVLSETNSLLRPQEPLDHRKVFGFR

These substances were tested against atToc132 A- plus G-domains bait (Arabidopsis thaliana) (UniProt Q9SLF3) (assay: two-hybrid; pairwise split-ubiquitin yeast two-hybrid of isolated NubG-preys with Toc159G, Toc132G or Toc132AG bait in NMY51; growth on SD-LWHA (3-AT) and quantitative β-Gal assay, activity relative to a reference bait set to 100%).

| binding | Substance |
| --- | --- |
| binds | Photosystem I subunit D-1 (from UniProt Q9S7H1 1-208) |
| binds | Photosystem I subunit L (from UniProt Q9SUI4 1-219) |
| binds | THI1 -involved in thiamine synthesis (vitamin B) (from UniProt Q38814 1-349) |

These substances were tested against atToc132 A- plus G-domains bait (Arabidopsis thaliana) (UniProt Q9SLF3) (assay: two-hybrid; split-ubiquitin membrane-based yeast two-hybrid library screen in S. cerevisiae NMY51; bait fused to Cub-LexA-VP16 (pBT3-STE), Arabidopsis seedling cDNA library preys fused to NubG; selection on SD-LWHA with 3-AT; hits re-streaked, retransformed with the same bait, X-Gal filter assay).

| Substance | binding |
| --- | --- |
| ATP carrier protein 1 (from UniProt P31167 1-381) | binds |
| Low PSII accumulation 3 protein (from UniProt Q8H0W0 1-358) | binds |
| Photosystem I light harvesting complex gene 3 (from UniProt Q9SY97 1-273) | binds |
| Photosystem I subunit G (from UniProt Q9S7N7 1-160) | binds |
| Photosystem II light harvesting complex gene 2.1 (from UniProt Q9SHR7 1-265) | binds |
| Photosystem II light harvesting complex protein 2.3 (from UniProt Q9XF87 1-266) | binds |

Results, then the substance that gave them:

| binding | Substance |
| --- | --- |
| binds | Cysteine synthase (from UniProt P47998 1-322) |
| binds | Photosystem I light harvesting complex gene 1 (from UniProt Q01667 1-241) |
| binds | Photosystem I light harvesting complex gene 2 (from UniProt Q9SYW8 1-257) |
| binds | Photosystem II Subunit P-1 (from UniProt Q42029 1-263) |

What follows are substances tested against DHFRHis (UniProt P00375) (assay: pull-down; solid phase binding assay: His-tagged TP-DHFR or DHFR immobilised on Ni-NTA resin (up to 800 pmol), incubated with 35S-labelled in vitro translated receptor, 25°C, 30 min, 50 mM Hepes-KOH pH 7.5, 5 mM MgCl2, 40 mM KOAc, 0.1% Triton X-100, 40 mM imidazole, 0.1 mM GTP; phosphorimager; only the target purified).

| binding | Substance |
| --- | --- |
| no binding (tested: 800 pmol) | [35S]atToc132AG (from UniProt Q9SLF3 1-794) (domain or fragment) |
| no binding (tested: 800 pmol) | [35S]atToc159AG (from UniProt O81283 1-1092) (domain or fragment) |
